# Results reported in PubChem BioAssay AID493014 (National Center for Advancing Translational Sciences (NCATS), 2011).
# This is one part of the list. Further columns of the screen follow, without active or inactive calls. Most of these compounds were active or inconclusive in the main read-out, so they are no random draw. Potencies come from curve fits of mixed quality, noted in brackets.
# Test: qHTS Assay to Find Inhibitors of Chronic Active B-Cell Receptor Signaling
# Details: ABC-DLBCL IkBa-CBG/CBR reporter, luminescence ratio (green luciferase fused to IkBa over red control in TMD8 lymphoma cells), 4 h
# Outline: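 Doxycycline induced both beetle luciferases in TMD8 lymphoma cells; IKK-driven degradation limits the IkappaBalpha-fused green signal, while red luminescence normalises for cell number and nonspecific effects. Compounds tested up to 46 uM, 4 hrs.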
# [1] = measured here: CBR red luminescence, cell number
# [2] = measured here: IkBa-CBG green luminescence
Compound,AC50 [1],AC50 [2]
Cc1ccccc1-c1nc(-c2ccc(NC(=O)c3ccc4c(c3)OCO4)cc2)no1,"9.2 µM [falling, partial curve, poor fit]",
Cn1c(=O)c(C(=O)Nc2ncccc2O)c(O)c2ccccc21,"7.08 µM [falling, full curve]",
N#Cc1ccc(Oc2cccnc2)cc1C#N,"0.58 µM [falling, full curve]",
CC(=O)N1CCN(C(=O)CSc2cc(C)c(Br)cc2C)CC1,"3.16 µM [rising, partial curve, poor fit]",
O=C(CCc1nnc(CCCCc2ccccc2)o1)N(CCO)Cc1ccccc1,"3.16 µM [falling, partial curve, poor fit]",
COc1cccc(NC(=O)CC(=O)c2ccc([N+](=O)[O-])cc2)c1,"7.94 µM [falling, partial curve]",
N#C/C(=C\c1coc2ccc(O)cc2c1=O)C(=O)Nc1nc2ccccc2s1,"11.2 µM [falling, partial curve, poor fit]",
O=C(O)c1cc(-c2ccc3ccccc3c2)nc2ccc(F)cc12,"10 µM [falling, partial curve, poor fit]",
CS(=O)(=O)Nc1ccc(C2=NN(C(=O)c3ccco3)C(c3ccccc3)C2)cc1 (configuration not stated),"1.3 µM [rising, partial curve]",
Cc1ccc(/C=C/c2nc3ccccc3[nH]2)cc1,"1.41 µM [falling, full curve]",
COc1ccccc1Cn1c(=S)[nH]c2cc(C(=O)NCCN3CCOCC3)ccc2c1=O,"35.5 µM [falling, partial curve, poor fit]",
CC(C)S(=O)(=O)c1cnc(-c2cccnc2)nc1N,"11.2 µM [rising, partial curve, poor fit]",
CCn1c(C)nc2c(=O)oc3ccccc3c21,"0.0092 µM [falling, full curve, poor fit]",
CCCCn1c(=O)n(Cc2cccc(F)c2)c(=O)c2c1ncn2Cc1ccco1,"2.59 µM [falling, full curve, poor fit]",
Cc1ccc2nc(N3C(=O)C(O)=C(C(=O)c4ccco4)C3c3cccc(O)c3)sc2c1 (configuration not stated),"1.41 µM [falling, full curve]",
Fc1c(F)c(F)c(N/N=C/c2c[nH]c3ccccc23)c(F)c1F,"29.1 µM [rising, single point]",
O=C(/C=C/c1c(Cl)cccc1Cl)NCc1ccccc1,"7.31 µM [rising, partial curve, poor fit]",
Cc1ccc(CNC(=O)C2CC2c2ccccc2)cc1 (configuration not stated),"5.8 µM [rising, full curve]",
COc1ccc(C/C(N)=N/OC(=O)Cc2ccccc2)cc1,"7.94 µM [rising, partial curve]",
COc1ccc(C2=NS(=O)(=O)N(C)C(C(=O)N3CCCCC3)=C2)cc1OC,"5.01 µM [falling, partial curve, poor fit]",
COc1cccc(C(=O)Nc2cccc(-c3ccc(N4CCOCC4)nn3)c2)c1OC,"14.6 µM [falling, single point]",
Cc1cc(C(=O)NC2CCCc3c2cnn3-c2cccc(C)c2C)c(C)o1 (configuration not stated),"14.1 µM [falling, partial curve]",

# Entries from the list above containing an aryl methoxy group:
Compound,AC50 [1],AC50 [2]
COc1cccc(NC(=O)CC(=O)c2ccc([N+](=O)[O-])cc2)c1,"7.94 µM [falling, partial curve]",
COc1ccccc1Cn1c(=S)[nH]c2cc(C(=O)NCCN3CCOCC3)ccc2c1=O,"35.5 µM [falling, partial curve, poor fit]",
COc1ccc(C/C(N)=N/OC(=O)Cc2ccccc2)cc1,"7.94 µM [rising, partial curve]",
COc1ccc(C2=NS(=O)(=O)N(C)C(C(=O)N3CCCCC3)=C2)cc1OC,"5.01 µM [falling, partial curve, poor fit]",
COc1cccc(C(=O)Nc2cccc(-c3ccc(N4CCOCC4)nn3)c2)c1OC,"14.6 µM [falling, single point]",

# Next part

Compound,AC50 [1],AC50 [2]
COc1ccc(N2CC(NC(=O)c3cc4ccccc4o3)CC2=O)cc1OC (configuration not stated),"22.4 µM [falling, single point]",
CCc1cccc(NS(=O)(=O)c2c(C)nc3sc(CC)nn3c2=O)c1,"0.631 µM [falling, full curve, poor fit]",
CCOc1ccc(NC(=O)CCC(=O)NNC(=O)Nc2ccc(Cl)cc2)cc1,"2.51 µM [rising, partial curve]",
COc1ccc(S(=O)(=O)Cc2ccc(C(=O)N3CCN(c4cccc(C)c4)C(C)C3)o2)cc1 (configuration not stated),"29.1 µM [rising, single point]",
CC[C@H]1C(c2ccc(F)cc2)=NN(c2ccccc2)[C@@H]1CO,"29.1 µM [falling, single point]",
COCCSc1ccccc1C(=O)N1CCOCC1,"25.9 µM [rising, single point]",
Cc1ccc(C2=NS(=O)(=O)N(C)C(C(=O)NCc3ccc(F)cc3)=C2)cc1,"15.8 µM [falling, single point]",
COC(=O)c1ccc(NC(=O)Nc2ccc(OC)cc2)cc1,"10 µM [falling, partial curve, poor fit]",
CCOc1cc(/C=C/C(=O)c2ccc(C)cc2)ccc1OCC(=O)N(C)C,"10.3 µM [falling, partial curve, poor fit]",
CC(C)C(=O)Nc1ccc(NC(=O)c2ccccn2)cn1,"25.1 µM [falling, single point]",
CCOc1ccc2nc(N3C(=O)CNC3=S)sc2c1,"3.98 µM [rising, partial curve, poor fit]","7.08 µM [falling, partial curve]"
COCCN(C(=O)c1ccco1)c1nc(-c2ccccc2)cs1,"3.16 µM [rising, partial curve, poor fit]",
Cc1ccc(C)c(CSc2nnc(CCN)o2)c1,"23.1 µM [rising, single point]",
O=C1N=c2ccccc2=C1c1[nH]c(=S)[nH]c1O,"5.8 µM [falling, partial curve, poor fit]",
CCN(CC(=O)Nc1sc2c(c1C#N)CCC(C)C2)Cc1nc2ccccc2c(=O)[nH]1 (configuration not stated),"20 µM [rising, partial curve, poor fit]",
COC(=O)c1ccccc1NC(=O)C1CCCO1 (configuration not stated),"32.6 µM [rising, single point]",
Cn1nnc2c(NCc3ccccc3Cl)ncnc21,"14.1 µM [falling, single point]",
COc1ccccc1-n1cnc2cc(NS(=O)(=O)c3ccccc3)ccc21,"29.1 µM [falling, single point]",
Cc1cc(OCc2cc(C(=O)N3CCN(CC4CC4)CC3)no2)cc(C)c1Cl,"22.4 µM [falling, single point]",
COc1ccc(C)cc1NC(=O)C(OC(=O)c1ccc(Cl)c(S(=O)(=O)N(C)c2ccccc2)c1)c1ccccc1 (configuration not stated),"5.8 µM [falling, partial curve]",
Cc1ccc(C2CC(=O)Oc3cc(C)c(Br)c(C)c32)cc1 (configuration not stated),"29.1 µM [rising, single point]",
COc1cccc(NC(=O)c2ccc(S(=O)(=O)N(C)C)cc2)c1,"12.6 µM [falling, partial curve, poor fit]",

Compound,AC50 [1],AC50 [2]
CC(NC(=O)c1nn(C)c2c1CS(=O)(=O)c1ccccc1-2)c1ccccc1 (configuration not stated),"1.12 µM [rising, partial curve, poor fit]",
O=C(NCc1ccc(Cl)cc1)C(=O)NCC1OCCN1C(=O)c1cccs1 (configuration not stated),"25.9 µM [rising, partial curve, poor fit]",
CS(=O)(=O)c1ncc(Cl)c(C(=O)Nc2ccc(N3CCOCC3)cc2)n1,"5.17 µM [falling, full curve, poor fit]","6.51 µM [rising, partial curve, poor fit]"
O=C(COc1ccc(Cl)cc1)NCCSc1ccccc1,"5.8 µM [rising, full curve, poor fit]",
CCc1nnc(NC(=O)/C=C/c2ccco2)s1,"18.4 µM [falling, partial curve]",
COc1ccccc1NS(=O)(=O)c1cc(NC(=O)c2cccc(S(=O)(=O)N(C)C)c2)ccc1N1CCOCC1,"4.11 µM [rising, full curve, poor fit]",
CCC1Sc2ccccc2N(CC(=O)NCCC(C)C)C1=O (configuration not stated),"35.5 µM [falling, partial curve, poor fit]",
COC(=O)c1cccc(Oc2cccc(Cl)n2)c1,"12.6 µM [rising, partial curve, poor fit]",
CN(CC(=O)NC1CCCCC1)S(=O)(=O)c1cccc2nsnc12,"35.5 µM [falling, single point]",
O=C(O)C1CCC(CNS(=O)(=O)c2ccccc2)CC1 (configuration not stated),"12.6 µM [rising, single point]",
CSc1ncccc1-c1nc2ccccc2[nH]1,"0.461 µM [falling, full curve]",
Cc1nn(C)c(C)c1NC(=O)Nc1ccc(Cl)c(Cl)c1,"17.8 µM [rising, partial curve, poor fit]",
CCOC(=O)COc1ccc(S(=O)(=O)Nc2ccc(C)cc2)cc1,"29.1 µM [falling, single point]",
Cc1cccc(N=C2C(=O)Nc3c(Cl)cccc32)c1,"10 µM [rising, partial curve, poor fit]",
O=c1oc2ccccc2c(O)c1CN1CCCCC1,"0.282 µM [falling, full curve, poor fit]",
CCCc1nc2oc3c(NCCCN(C)C)ncnc3c2c2c1CCCC2,"20 µM [falling, partial curve]","12.6 µM [rising, partial curve, poor fit]"
Cc1ccccc1OCc1nnc(SCCN2CCCC2)n1-c1ccccc1,"0.631 µM [falling, full curve, poor fit]",
O=C(Oc1ccc2cc(Br)ccc2c1)c1cccnc1,"2.24 µM [rising, partial curve, poor fit]",
CC(SCc1ccccc1)C(=O)N/N=C/c1cc2c(cc1Br)OCO2 (configuration not stated),"35.5 µM [falling, single point]",
O=C(O)c1ccc(S(=O)(=O)NC2CCCCC2)cc1,"3.16 µM [rising, partial curve]",
